Laboratory results published in PubChem BioAssay AID248 (DTP/NCI, 2004).
The list is a part of this screen's results and no random one: it is rich in T/C values a quarter to a half above the control, in often repeated tests (any T/C) and in doses without a T/C. Other doses and runs of a compound stand elsewhere. T/C is the treated group as % of the vehicle group. Some entries give survivors of the animals treated and no T/C: the source holds a T/C of zero for them, seemingly a mark for toxic or unscored doses. Some doses without a T/C left all or most animals alive at the check, yet need not have been tolerated: the source hardly ever lists a survival T/C far under the control, and the zero likely stands for such cases as well. Counts of survivors are from the toxicity check (mostly the fifth day) where no day follows; animals may have died later. Schedules are NCI's codes, read here as Q, the interval in days (D) or hours (H), X, the number of doses. Additions like (4×) say how often a value occurs here. For survival time, the PubChem record calls one and a half times the control and up active, and a quarter to a half above the control has no call in these data; cut-offs in other NCI protocols can differ.

System: L1210 leukemia ip in BDF1 mice, survival T/C
Test: NCI In Vivo Anticancer Drug Screen. Data for tumor model L1210 Leukemia (intraperitoneal) in B6D2F1 (BDF1) mice
Conditions: T/C endpoint: mean survival time, higher T/C = longer survival
[1] = dose: 100.0 mg/kg/injection, schedule: Q01DX009 (ip), vehicle: saline with Tween-80
[2] = dose: 200.0 mg/kg/injection, schedule: Q01DX009 (ip), vehicle: saline with Tween-80
[3] = dose: 400.0 mg/kg/injection, schedule: Q01DX009 (ip), vehicle: other
[4] = dose: 100.0 mg/kg/injection, schedule: Q04DX003 (ip), vehicle: saline
[5] = dose: 400.0 mg/kg/injection, schedule: Q04DX003 (ip), vehicle: saline
[6] = dose: 400.0 mg/kg/injection, schedule: Q01DX001 (ip), vehicle: saline

**Q.** With `Cc1ccc(NC(=O)COc2cc(Cl)c(Cl)cc2Cl)cc1C` as the compound, how does the survivor count [1] read?
**A.** The survivor count was 6 of 6.

**Q.** What about the survivor count [2] of the same compound?
**A.** Its survivor count is 6 of 6.

**Q.** What does the source list for `[CH3][Sb]([CH3])([CH3])([O]C(=O)CF)[O]C(=O)CF`?
**A.** survivor count (dose: 10.0 mg/kg/injection, schedule: Q04DX003 (ip), vehicle: saline): 6 of 6; survivor count (dose: 20.0 mg/kg/injection, schedule: Q04DX003 (ip), vehicle: saline): 4 of 6

**Q.** Which results are given for `CCN(Cc1ccc(Cl)c(Cl)c1)c1ccc2nc(N)nc(N)c2c1C`?
**A.** T/C (dose: 12.5 mg/kg/injection, schedule: Q01DX009 (ip), vehicle: water): 132 % of control; survivor count (dose: 25.0 mg/kg/injection, schedule: Q01DX009 (ip), vehicle: water): 6 of 6 (2×); survivor count (dose: 50.0 mg/kg/injection, schedule: Q01DX009 (ip), vehicle: water): 6 of 6; survivor count (dose: 100.0 mg/kg/injection, schedule: Q01DX009 (ip), vehicle: water): 2 of 6; survivor count (dose: 200.0 mg/kg/injection, schedule: Q01DX009 (ip), vehicle: water): 1 of 6; survivor count (dose: 400.0 mg/kg/injection, schedule: Q01DX009 (ip), vehicle: water): 0 of 6

**Q.** What does the source list for `CC(Br)C1(c2cccc([N+](=O)[O-])c2)OCCO1` (stereo not drawn)?
**A.** survivor count (dose: 100.0 mg/kg/injection, schedule: Q01DX009 (ip), vehicle: other): 1 of 6; survivor count (dose: 200.0 mg/kg/injection, schedule: Q01DX009 (ip), vehicle: other): 0 of 6; survivor count [3]: 0 of 6

**Q.** What does the source list for `O=C(OCC1CCN2CCCC12)c1ccccc1` (stereo not drawn)?
**A.** survivor count [4]: 3 of 6; survivor count (dose: 200.0 mg/kg/injection, schedule: Q04DX003 (ip), vehicle: saline): 1 of 6; survivor count [5]: 0 of 6

**Q.** For `Cc1ccc(N(C=O)N=O)cc1`, which survivor count [6] is on record?
**A.** The survivor count was 1 of 4.

**Q.** How did the survivor count (dose: 100.0 mg/kg/injection, schedule: Q01DX003 (ip), vehicle: saline with Tween-80) turn out when `CC(C)=CCC(=O)NCC(CCN1CCCCC1)(c1cccc2ccccc12)C(C)C` (stereo not drawn) was run?
**A.** The survivor count was 0 of 6.

**Q.** And the survivor count (dose: 200.0 mg/kg/injection, schedule: Q01DX003 (ip), vehicle: saline with Tween-80)?
**A.** The survivor count was 2 of 6.

**Q.** What about the survivor count (dose: 400.0 mg/kg/injection, schedule: Q01DX009 (ip), vehicle: Klucel (hydroxypropylcellulose) (HPC)) of the same compound?
**A.** Its survivor count is 0 of 6.

**Q.** Which results are given for `N#CC(=N)C(C#N)=Nc1c(O)[nH]c2ccccc12`?
**A.** survivor count (dose: 100.0 mg/kg/injection, schedule: Q01DX009 (ip), vehicle: DMSO): 0 of 6; survivor count (dose: 200.0 mg/kg/injection, schedule: Q01DX001 (ip), vehicle: DMSO): 0 of 6; survivor count (dose: 400.0 mg/kg/injection, schedule: Q01DX001 (ip), vehicle: DMSO): 0 of 6

**Q.** What does the source list for `CCOP(=[Se])(OCC)OCC`?
**A.** survivor count [1]: 0 of 6; survivor count [2]: 0 of 6; survivor count (dose: 400.0 mg/kg/injection, schedule: Q01DX009 (ip), vehicle: saline with Tween-80): 0 of 6

**Q.** For `O=S1(=O)CC(O)C(Cl)C1` (stereo not drawn), which survivor count [5] is on record?
**A.** Its survivor count is 3 of 6.

**Q.** With `CCC1(Br)OC1=O` (stereo not drawn) as the compound, how does the survivor count (dose: 200.0 mg/kg/injection, schedule: Q01DX009 (ip), vehicle: acetone) read?
**A.** Its survivor count is 5 of 6.

**Q.** What about the survivor count (dose: 400.0 mg/kg/injection, schedule: Q04DX003 (ip), vehicle: acetone) of the same compound?
**A.** The survivor count was 5 of 6.

**Q.** Which survivor count [6] does the source give for `COc1ccc(N)cc1NC(C)=O` here?
**A.** The survivor count was 0 of 4.

**Q.** With `COC(=O)C1=COC(C)C(C=O)C1CC(=O)O` (stereo not drawn) as the compound, how does the survivor count (dose: 50.0 mg/kg/injection, schedule: Q01DX009 (ip), vehicle: saline) read?
**A.** The survivor count was 6 of 6.

**Q.** And the T/C (dose: 100.0 mg/kg/injection, schedule: Q01DX001 (ip), vehicle: saline)?
**A.** Its T/C is 125 % of control.

**Q.** What about the survivor count [4] of the same compound?
**A.** The survivor count was 3 of 6.

**Q.** And the survivor count (dose: 200.0 mg/kg/injection, schedule: Q01DX001 (ip), vehicle: saline)?
**A.** Its survivor count is 0 of 6.

**Q.** And the survivor count [6]?
**A.** Its survivor count is 0 of 6.

**Q.** What does the source list for `CCCNC(=O)NO`?
**A.** T/C [3]: 132 % of control; T/C (dose: 600.0 mg/kg/injection, schedule: Q01DX009 (ip), vehicle: other): 146 % of control; T/C (dose: 900.0 mg/kg/injection, schedule: Q01DX009 (ip), vehicle: other): 141 % of control
